Among the data in the supplement of paper PMC12819154, “High-throughput peptide-centric local stability assay extends protein–ligand identification to membrane proteins, tissues and bacteria” (Nature Structural & Molecular Biology, 2025) are log2 fold change values, retold here.

Amino acid sequences for entries named in this document (tags omitted). A change or cut given only in a name is not applied to a line headed by its entry.
UniProt O95201: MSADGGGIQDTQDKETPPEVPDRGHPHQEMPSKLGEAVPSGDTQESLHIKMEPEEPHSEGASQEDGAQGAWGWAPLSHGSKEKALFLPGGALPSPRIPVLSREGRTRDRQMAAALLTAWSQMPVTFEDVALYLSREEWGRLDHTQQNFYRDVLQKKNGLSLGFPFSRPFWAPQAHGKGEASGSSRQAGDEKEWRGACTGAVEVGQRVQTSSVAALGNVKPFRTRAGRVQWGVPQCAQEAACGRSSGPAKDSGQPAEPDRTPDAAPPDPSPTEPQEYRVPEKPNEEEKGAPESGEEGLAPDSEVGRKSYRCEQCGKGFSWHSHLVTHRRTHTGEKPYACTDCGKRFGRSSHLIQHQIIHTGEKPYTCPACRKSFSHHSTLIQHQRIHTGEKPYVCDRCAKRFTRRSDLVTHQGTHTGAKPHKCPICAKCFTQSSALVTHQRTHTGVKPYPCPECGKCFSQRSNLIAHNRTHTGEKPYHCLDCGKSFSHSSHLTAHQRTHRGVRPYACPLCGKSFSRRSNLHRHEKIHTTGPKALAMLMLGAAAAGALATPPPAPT
UniProt O95602, whole entry: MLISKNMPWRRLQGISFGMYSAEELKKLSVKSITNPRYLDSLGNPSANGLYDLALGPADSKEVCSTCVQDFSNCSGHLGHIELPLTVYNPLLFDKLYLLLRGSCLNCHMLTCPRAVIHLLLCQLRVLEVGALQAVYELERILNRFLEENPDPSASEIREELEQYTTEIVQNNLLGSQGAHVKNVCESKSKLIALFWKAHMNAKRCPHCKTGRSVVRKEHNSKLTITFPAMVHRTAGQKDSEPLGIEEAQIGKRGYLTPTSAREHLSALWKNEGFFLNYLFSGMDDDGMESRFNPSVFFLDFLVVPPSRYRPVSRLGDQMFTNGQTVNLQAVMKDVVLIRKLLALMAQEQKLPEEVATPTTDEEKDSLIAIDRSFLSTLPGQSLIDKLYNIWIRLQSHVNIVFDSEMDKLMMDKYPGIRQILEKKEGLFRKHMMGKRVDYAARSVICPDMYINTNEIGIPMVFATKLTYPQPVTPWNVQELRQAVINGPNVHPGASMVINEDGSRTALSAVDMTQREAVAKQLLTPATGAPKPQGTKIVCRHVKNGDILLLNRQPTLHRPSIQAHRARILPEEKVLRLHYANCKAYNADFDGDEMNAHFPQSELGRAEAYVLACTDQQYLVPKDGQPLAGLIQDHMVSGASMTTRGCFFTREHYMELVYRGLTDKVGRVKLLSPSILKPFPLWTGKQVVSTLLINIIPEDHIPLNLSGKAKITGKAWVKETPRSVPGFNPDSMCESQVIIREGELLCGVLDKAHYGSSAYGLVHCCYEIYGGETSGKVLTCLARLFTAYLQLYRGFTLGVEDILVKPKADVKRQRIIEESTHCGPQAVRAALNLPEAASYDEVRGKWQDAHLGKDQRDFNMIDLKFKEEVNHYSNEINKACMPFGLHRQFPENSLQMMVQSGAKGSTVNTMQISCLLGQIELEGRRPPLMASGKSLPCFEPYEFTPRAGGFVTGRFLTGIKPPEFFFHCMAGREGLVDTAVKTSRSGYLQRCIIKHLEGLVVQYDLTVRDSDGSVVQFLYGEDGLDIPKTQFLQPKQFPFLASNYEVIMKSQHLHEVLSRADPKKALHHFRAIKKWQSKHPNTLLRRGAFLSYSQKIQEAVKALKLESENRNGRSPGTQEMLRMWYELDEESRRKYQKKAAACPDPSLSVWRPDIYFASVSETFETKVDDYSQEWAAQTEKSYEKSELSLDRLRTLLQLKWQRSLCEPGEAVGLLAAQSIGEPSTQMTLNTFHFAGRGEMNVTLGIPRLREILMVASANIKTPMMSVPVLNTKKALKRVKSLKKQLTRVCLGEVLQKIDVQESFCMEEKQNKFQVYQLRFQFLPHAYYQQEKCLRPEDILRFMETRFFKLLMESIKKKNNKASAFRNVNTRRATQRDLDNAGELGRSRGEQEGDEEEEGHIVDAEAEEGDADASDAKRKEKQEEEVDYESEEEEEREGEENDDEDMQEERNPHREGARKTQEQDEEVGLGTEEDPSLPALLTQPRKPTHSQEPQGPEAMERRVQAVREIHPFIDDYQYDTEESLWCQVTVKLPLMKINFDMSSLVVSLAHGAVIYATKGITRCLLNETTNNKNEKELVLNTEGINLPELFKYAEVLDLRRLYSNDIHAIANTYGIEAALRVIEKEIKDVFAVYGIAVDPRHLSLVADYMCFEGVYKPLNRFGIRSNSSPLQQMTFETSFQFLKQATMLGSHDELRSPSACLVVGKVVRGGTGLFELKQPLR
UniProt O75564: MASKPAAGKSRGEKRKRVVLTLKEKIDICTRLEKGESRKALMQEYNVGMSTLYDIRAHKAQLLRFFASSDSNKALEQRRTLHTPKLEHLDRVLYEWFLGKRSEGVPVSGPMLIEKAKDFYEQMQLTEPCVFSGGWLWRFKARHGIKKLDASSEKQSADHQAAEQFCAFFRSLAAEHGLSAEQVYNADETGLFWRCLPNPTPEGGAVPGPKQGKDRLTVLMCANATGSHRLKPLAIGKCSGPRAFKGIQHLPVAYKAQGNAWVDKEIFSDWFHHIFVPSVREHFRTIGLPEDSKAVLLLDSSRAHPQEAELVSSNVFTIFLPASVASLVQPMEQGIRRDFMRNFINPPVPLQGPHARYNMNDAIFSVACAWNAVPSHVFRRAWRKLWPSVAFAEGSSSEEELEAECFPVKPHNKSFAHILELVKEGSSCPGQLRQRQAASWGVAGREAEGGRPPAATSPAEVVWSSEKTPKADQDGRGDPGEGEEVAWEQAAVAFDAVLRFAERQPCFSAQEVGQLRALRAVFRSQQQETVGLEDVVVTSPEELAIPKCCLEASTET
UniProt O95071: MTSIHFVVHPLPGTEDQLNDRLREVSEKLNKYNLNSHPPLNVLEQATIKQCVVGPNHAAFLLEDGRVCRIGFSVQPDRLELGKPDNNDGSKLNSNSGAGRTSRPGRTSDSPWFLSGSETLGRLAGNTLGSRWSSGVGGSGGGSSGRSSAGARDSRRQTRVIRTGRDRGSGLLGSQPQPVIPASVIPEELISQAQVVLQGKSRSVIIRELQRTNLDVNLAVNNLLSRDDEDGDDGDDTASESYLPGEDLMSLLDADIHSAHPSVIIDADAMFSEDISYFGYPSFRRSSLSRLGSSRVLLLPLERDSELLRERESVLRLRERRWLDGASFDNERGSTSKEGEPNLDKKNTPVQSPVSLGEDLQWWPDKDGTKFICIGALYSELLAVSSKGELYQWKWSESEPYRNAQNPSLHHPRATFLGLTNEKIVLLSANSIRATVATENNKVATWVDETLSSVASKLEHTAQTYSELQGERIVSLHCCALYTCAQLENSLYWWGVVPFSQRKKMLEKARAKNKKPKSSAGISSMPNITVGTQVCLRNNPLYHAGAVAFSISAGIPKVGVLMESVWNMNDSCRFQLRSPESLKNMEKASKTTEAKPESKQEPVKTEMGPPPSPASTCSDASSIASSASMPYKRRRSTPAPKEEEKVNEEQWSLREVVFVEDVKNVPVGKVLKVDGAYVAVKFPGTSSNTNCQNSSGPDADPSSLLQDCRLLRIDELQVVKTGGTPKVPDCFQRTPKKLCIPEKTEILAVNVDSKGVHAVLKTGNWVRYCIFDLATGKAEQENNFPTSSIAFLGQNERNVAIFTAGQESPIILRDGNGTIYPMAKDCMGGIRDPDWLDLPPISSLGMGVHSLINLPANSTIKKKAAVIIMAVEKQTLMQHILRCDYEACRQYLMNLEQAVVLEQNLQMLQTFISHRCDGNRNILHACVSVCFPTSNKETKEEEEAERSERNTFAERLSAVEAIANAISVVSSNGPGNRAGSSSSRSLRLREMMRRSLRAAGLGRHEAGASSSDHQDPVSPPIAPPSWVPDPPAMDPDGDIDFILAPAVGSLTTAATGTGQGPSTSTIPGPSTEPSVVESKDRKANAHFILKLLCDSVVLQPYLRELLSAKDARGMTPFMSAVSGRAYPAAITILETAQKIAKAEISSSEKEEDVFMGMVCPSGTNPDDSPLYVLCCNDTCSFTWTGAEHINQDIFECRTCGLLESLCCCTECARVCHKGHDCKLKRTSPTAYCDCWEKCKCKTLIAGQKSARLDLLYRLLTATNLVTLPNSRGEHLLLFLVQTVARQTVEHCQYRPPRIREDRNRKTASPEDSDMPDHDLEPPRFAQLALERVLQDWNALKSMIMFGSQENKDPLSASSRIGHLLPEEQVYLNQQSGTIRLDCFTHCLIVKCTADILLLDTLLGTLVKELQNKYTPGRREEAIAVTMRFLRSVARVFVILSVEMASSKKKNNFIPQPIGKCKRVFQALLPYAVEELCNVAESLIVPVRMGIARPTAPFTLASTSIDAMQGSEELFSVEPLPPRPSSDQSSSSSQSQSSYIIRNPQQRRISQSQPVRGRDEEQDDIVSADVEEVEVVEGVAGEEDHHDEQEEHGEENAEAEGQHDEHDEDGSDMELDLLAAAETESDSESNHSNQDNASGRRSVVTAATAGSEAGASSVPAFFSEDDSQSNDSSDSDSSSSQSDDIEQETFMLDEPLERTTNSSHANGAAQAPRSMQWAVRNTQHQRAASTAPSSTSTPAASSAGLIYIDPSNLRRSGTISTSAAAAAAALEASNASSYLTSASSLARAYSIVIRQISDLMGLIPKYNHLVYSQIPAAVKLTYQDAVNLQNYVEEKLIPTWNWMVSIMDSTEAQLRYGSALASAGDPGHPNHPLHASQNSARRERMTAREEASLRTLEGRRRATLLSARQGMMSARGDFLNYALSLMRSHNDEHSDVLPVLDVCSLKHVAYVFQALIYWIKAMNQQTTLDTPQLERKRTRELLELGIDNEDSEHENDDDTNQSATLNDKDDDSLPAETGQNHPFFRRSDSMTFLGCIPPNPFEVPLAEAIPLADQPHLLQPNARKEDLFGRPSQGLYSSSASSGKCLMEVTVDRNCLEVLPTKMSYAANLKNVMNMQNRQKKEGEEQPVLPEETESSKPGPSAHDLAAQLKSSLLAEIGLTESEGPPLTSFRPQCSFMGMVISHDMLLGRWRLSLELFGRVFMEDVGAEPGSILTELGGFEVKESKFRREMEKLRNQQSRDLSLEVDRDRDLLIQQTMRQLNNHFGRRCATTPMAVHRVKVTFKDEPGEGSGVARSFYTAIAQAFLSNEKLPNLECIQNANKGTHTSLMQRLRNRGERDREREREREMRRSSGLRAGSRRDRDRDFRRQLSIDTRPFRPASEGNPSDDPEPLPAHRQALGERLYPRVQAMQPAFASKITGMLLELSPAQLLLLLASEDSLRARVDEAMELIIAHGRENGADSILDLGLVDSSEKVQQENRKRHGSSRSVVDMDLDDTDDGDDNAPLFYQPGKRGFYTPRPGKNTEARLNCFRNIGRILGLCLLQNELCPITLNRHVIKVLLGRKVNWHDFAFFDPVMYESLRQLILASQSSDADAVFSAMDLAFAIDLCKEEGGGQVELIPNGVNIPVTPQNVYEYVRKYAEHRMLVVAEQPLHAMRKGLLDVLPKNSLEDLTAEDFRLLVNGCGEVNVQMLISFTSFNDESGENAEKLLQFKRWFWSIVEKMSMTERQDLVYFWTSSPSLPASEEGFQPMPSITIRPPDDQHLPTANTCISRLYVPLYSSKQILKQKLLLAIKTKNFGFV
UniProt O75437: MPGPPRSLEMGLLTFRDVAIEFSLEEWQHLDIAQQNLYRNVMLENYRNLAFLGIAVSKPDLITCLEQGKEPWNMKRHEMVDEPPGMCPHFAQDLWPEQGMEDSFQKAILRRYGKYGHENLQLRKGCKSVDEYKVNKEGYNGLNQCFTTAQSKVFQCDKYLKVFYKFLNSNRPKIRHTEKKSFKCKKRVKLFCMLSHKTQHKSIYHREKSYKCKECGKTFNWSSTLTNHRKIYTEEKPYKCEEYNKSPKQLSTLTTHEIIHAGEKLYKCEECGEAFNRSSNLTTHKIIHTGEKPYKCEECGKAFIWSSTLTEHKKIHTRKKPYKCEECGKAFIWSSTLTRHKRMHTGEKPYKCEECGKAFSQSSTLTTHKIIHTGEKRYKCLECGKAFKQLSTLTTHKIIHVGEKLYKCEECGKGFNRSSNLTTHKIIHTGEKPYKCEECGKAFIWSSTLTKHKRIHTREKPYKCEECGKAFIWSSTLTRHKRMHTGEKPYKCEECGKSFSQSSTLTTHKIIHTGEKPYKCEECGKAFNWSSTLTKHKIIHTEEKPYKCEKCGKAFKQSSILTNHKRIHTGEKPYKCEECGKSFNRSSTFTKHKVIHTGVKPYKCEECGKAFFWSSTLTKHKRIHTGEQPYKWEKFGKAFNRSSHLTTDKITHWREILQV

Some of the results follow. Small differences around the control level are noise.

Compound in the assay: Cc1nc(Nc2ncc(C(=O)Nc3c(C)cccc3Cl)s2)cc(N2CCN(CCO)CC2)n1 [dasatinib]
The assay is described as follows: log2 fold change of tryptic peptide abundance, ligand vs vehicle (limited proteolysis) (log2 ratio); higher = more trypsin-susceptible (destabilized). To be noted: ligand concentration: 5 uM; sample: K562 cleared lysate.
As to “UniProt O95201 (peptide sequence: LDHTQQNFYR, peptide start residue: 141)”, the log2 fold change is -1.16.

Turning to “UniProt O75521 (peptide sequence: IMFNRPK, peptide start residue: 153)”, the log2 fold change is -0.2.

As for “TRIM16 (peptide sequence: TQVSAVVQR, peptide start residue: 345) (UniProt O95361)”, the log2 fold change is -0.0851.

Regarding “MLYCD (peptide sequence: EAAVLLQAEDR, peptide start residue: 118) (UniProt O95822)”, the log2 fold change is -0.607.

Take “POLR1A (peptide sequence: QLLTPATGAPKPQGTK, peptide start residue: 521) (UniProt O95602)”: the log2 fold change is 0.303.

Consider “UniProt O95163 (peptide sequence: YCLSILTSHVKK, peptide start residue: 835)”, for which the log2 fold change is -0.565.

In the case of “ERLIN2 (peptide sequence: VAQVAEITYGQK, peptide start residue: 221) (UniProt O94905)”, the log2 fold change worked out at 0.222.

Regarding “JRK (peptide sequence: GIQHLPVAYK, peptide start residue: 246) (UniProt O75564)”, the log2 fold change came to 0.797.

For “UniProt O95071 (peptide sequence: VTFKDEPGEGSGVAR, peptide start residue: 2279)”, the log2 fold change was 0.207.

As to “SEC24D (peptide sequence: AVLHQPLK, peptide start residue: 796) (UniProt O94855)”, the log2 fold change is 0.891.

Turning to “UniProt O75437 (peptide sequence: TFNWSSTLTNHR, peptide start residue: 218)”, the log2 fold change amounted to 0.125.
